Data published in ChEMBL document CHEMBL4316593 (Eur J Med Chem, 2019).
The source gives many values for each of these; only a part stands here.

What was measured:
Assay type in all cases: cell-based
Conditions in all cases: U-87MG ATCC
[1] = Inhibition of RTK/PI3K/AKT/mTOR signaling in human U87 cells assessed as down regulation of C9orf72 gene expression at cytotoxic IC50 measured after 48 hrs relative to control
[2] = Inhibition of RTK/PI3K/AKT/mTOR signaling in human U87 cells assessed as down regulation of NGFR gene expression at cytotoxic IC50 measured after 48 hrs relative to control
[3] = Inhibition of RTK/PI3K/AKT/mTOR signaling in human U87 cells assessed as up regulation of LARS gene expression at cytotoxic IC50 measured after 48 hrs relative to control
[4] = Inhibition of RTK/PI3K/AKT/mTOR signaling in human U87 cells assessed as up regulation of LOXL2 gene expression at cytotoxic IC50 measured after 48 hrs relative to control
[5] = Inhibition of RTK/PI3K/AKT/mTOR signaling in human U87 cells assessed as up regulation of major facilitator superfamily domain containing 10 gene expression at cytotoxic IC50 measured after 48 hrs relative to control
[6] = Inhibition of RTK/PI3K/AKT/mTOR signaling in human U87 cells assessed as up regulation of TMED4 gene expression at cytotoxic IC50 measured after 48 hrs relative to control
[7] = Inhibition of RTK/PI3K/AKT/mTOR signaling in human U87 cells assessed as up regulation of protein disulfide isomerase family A member 4 gene expression at cytotoxic IC50 measured after 48 hrs relative to control
[8] = Inhibition of RTK/PI3K/AKT/mTOR signaling in human U87 cells assessed as up regulation of sorbitol dehydrogenase gene expression at cytotoxic IC50 measured after 48 hrs relative to control
[9] = Inhibition of RTK/PI3K/AKT/mTOR signaling in human U87 cells assessed as down regulation of TRAF4 gene expression at cytotoxic IC50 measured after 48 hrs relative to control
[10] = Inhibition of RTK/PI3K/AKT/mTOR signaling in human U87 cells assessed as down regulation of ATF7 gene expression at cytotoxic IC50 measured after 48 hrs relative to control
[11] = Inhibition of RTK/PI3K/AKT/mTOR signaling in human U87 cells assessed as up regulation of rhomboid 5 homolog 2 gene expression at cytotoxic IC50 measured after 48 hrs relative to control
[12] = Inhibition of RTK/PI3K/AKT/mTOR signaling in human U87 cells assessed as down regulation of IFRD1 gene expression at cytotoxic IC50 measured after 48 hrs relative to control
[13] = Inhibition of RTK/PI3K/AKT/mTOR signaling in human U87 cells assessed as up regulation of zinc finger protein 292 gene expression at cytotoxic IC50 measured after 48 hrs relative to control
[14] = Inhibition of RTK/PI3K/AKT/mTOR signaling in human U87 cells assessed as down regulation of HECTD2 gene expression at cytotoxic IC50 measured after 48 hrs relative to control
[15] = Inhibition of RTK/PI3K/AKT/mTOR signaling in human U87 cells assessed as down regulation of C14orf166 gene expression at cytotoxic IC50 measured after 48 hrs relative to control
[16] = Inhibition of RTK/PI3K/AKT/mTOR signaling in human U87 cells assessed as down regulation of ORC6 gene expression at cytotoxic IC50 measured after 48 hrs relative to control
[17] = Inhibition of RTK/PI3K/AKT/mTOR signaling in human U87 cells assessed as down regulation of EDC3 gene expression at cytotoxic IC50 measured after 48 hrs relative to control
[18] = Inhibition of RTK/PI3K/AKT/mTOR signaling in human U87 cells assessed as down regulation of TAF2 gene expression at cytotoxic IC50 measured after 48 hrs relative to control
[19] = Inhibition of RTK/PI3K/AKT/mTOR signaling in human U87 cells assessed as up regulation of adenosine A2b receptor gene expression at cytotoxic IC50 measured after 48 hrs relative to control
[20] = Inhibition of RTK/PI3K/AKT/mTOR signaling in human U87 cells assessed as down regulation of SPOUT1 gene expression at cytotoxic IC50 measured after 48 hrs relative to control
[21] = Inhibition of RTK/PI3K/AKT/mTOR signaling in human U87 cells assessed as down regulation of AFF4 gene expression at cytotoxic IC50 measured after 48 hrs relative to control
[22] = Inhibition of RTK/PI3K/AKT/mTOR signaling in human U87 cells assessed as up regulation of nuclear prelamin A recognition factor gene expression at cytotoxic IC50 measured after 48 hrs relative to control
[23] = Inhibition of RTK/PI3K/AKT/mTOR signaling in human U87 cells assessed as up regulation of long intergenic non-protein coding RNA 857 gene expression at cytotoxic IC50 measured after 48 hrs relative to control
[24] = Inhibition of RTK/PI3K/AKT/mTOR signaling in human U87 cells assessed as up regulation of basal cell adhesion molecule (Lutheran blood group) gene expression at cytotoxic IC50 measured after 48 hrs relative to control
[25] = Inhibition of RTK/PI3K/AKT/mTOR signaling in human U87 cells assessed as up regulation of zinc finger protein 76 gene expression at cytotoxic IC50 measured after 48 hrs relative to control
[26] = Inhibition of RTK/PI3K/AKT/mTOR signaling in human U87 cells assessed as down regulation of HELZ2 gene expression at cytotoxic IC50 measured after 48 hrs relative to control
[27] = Inhibition of RTK/PI3K/AKT/mTOR signaling in human U87 cells assessed as down regulation of TAF12 gene expression at cytotoxic IC50 measured after 48 hrs relative to control
[28] = Inhibition of RTK/PI3K/AKT/mTOR signaling in human U87 cells assessed as down regulation of SCAF8 gene expression at cytotoxic IC50 measured after 48 hrs relative to control
[29] = Inhibition of RTK/PI3K/AKT/mTOR signaling in human U87 cells assessed as down regulation of PSMD6 gene expression at cytotoxic IC50 measured after 48 hrs relative to control
[30] = Inhibition of RTK/PI3K/AKT/mTOR signaling in human U87 cells assessed as down regulation of DNMT1 gene expression at cytotoxic IC50 measured after 48 hrs relative to control
[31] = Inhibition of RTK/PI3K/AKT/mTOR signaling in human U87 cells assessed as down regulation of MCM3 gene expression at cytotoxic IC50 measured after 48 hrs relative to control
[32] = Inhibition of RTK/PI3K/AKT/mTOR signaling in human U87 cells assessed as down regulation of ATF3 gene expression at cytotoxic IC50 measured after 48 hrs relative to control

In the case of CC(=O)C(=NNc1ccccc1C#N)C(C)=O, the log2FC [1] is reported as -0.903, the log2FC [2] is reported as -3.49 and the log2FC [3] is reported as 0.57. The log2FC [4] was 2.67, the log2FC [5] was 0.74 and the log2FC [6] was 0.491. The log2FC [7] was 1.29, the log2FC [8] was 0.667 and the log2FC [9] was -1.11. It also gave a log2FC [10] of -1.34, a log2FC [11] of 0.702 and a log2FC [12] of -0.945. It also gave a log2FC [13] of 1.05, a log2FC [14] of -1.01 and a log2FC [15] of -0.409. For the same compound, the log2FC [16] was -1.44, the log2FC [17] was -0.741 and the log2FC [18] was -0.503. For the same compound, the log2FC [19] was 1.45, the log2FC [20] was -0.817 and the log2FC [21] was -0.86. It also gave a log2FC [22] of 0.804, a log2FC [23] of 1.37 and a log2FC [24] of 1.03. For the same compound, the log2FC [25] was 0.823, the log2FC [26] was -1.32 and the log2FC [27] was -0.59. For the same compound, the log2FC [28] was -0.574, the log2FC [29] was -1.14 and the log2FC [30] was -0.454. For the same compound, the log2FC [31] was -0.685 and the log2FC [32] was -1.25.
